Drawing on the supplement of paper PMC6289059, this text covers ATP level for 84 compounds.

Several values for one entry are separate records, joined by “and”; a condition that tells them apart may be missing. Identical values can stand only once. The list shows a part of the results. Single values are uncertain, as repeats are few or missing.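 The assay uses human stem cell-derived hepatocyte-like cells whose DGUOK gene was disrupted by CRISPR, modeling liver mtDNA depletion syndrome. ATP signals were scored within each plate, and any drug with a score of at least 3 was called a primary hit.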

The assay concerns DGUOK Δ14/Δ5 iPSC-derived hepatocyte-like cells (SV20). Nature of the assay: ATP level (CellTiter-Glo luminescence) Z score relative to plate distribution, under 2-DG glycolysis block; higher = more cellular ATP (rescue of mitochondrial ATP production). The note with it: 5 µM; treatment time: day 15 to day 20 of differentiation (5 days); 2-deoxy-D-glucose: 20 mM for 24 h before assay. On the technique in general: ATP-based viability assays read luminescence as a measure of living cells.
Turning to `O=c1cc(-c2ccccc2)oc2cc(O)ccc12`, the ATP level was inactive: 0.35.
As to `Cc1cc(=O)oc2cc(O)cc(O)c12`, the ATP level was inactive: 0.797.
Regarding `CC(=O)Oc1ccccc1C(=O)O`, the ATP level was inactive: 0.272.
Turning to `CC1=C(/C=C/C(C)=C/C=C/C(C)=C/C=C/C=C(C)/C=C/C=C(C)/C=C/C2=C(C)C(=O)[C@@H](O)CC2(C)C)C(C)(C)C[C@H](O)C1=O`, the ATP level is inactive: 0.572.
For `N=C(N)NS(=O)(=O)c1ccc(N)cc1`, the ATP level was inactive: 0.549.
For `NC[C@@H]1CC[C@@H](N)[C@@H](O[C@H]2[C@H](O)[C@@H](O[C@H]3O[C@H](CO)[C@@H](O)[C@H](N)[C@H]3O)[C@H](N)C[C@@H]2N)O1`, the ATP level is inactive: 1.61.
For the compound `CC1=C(/C=C/C(C)=C/C=C/C(C)=C/C(=O)O)C(C)(C)CCC1`, the ATP level was inactive: 2.53.
On to `CCc1c(C)[nH]c2c1C(=O)C(CN1CCOCC1)CC2` (centres undefined), for which the ATP level is inactive: 2.58.
For the compound `COC(=O)C1OC(=O)C2OC23C1(C)CCC1C2(C)C(OC(C)=O)CC(OC(C)=O)C(C)(C)C2CC(O)C13C` (centres undefined), the ATP level is inactive: 1.84.
Turning to `COc1cc(C(=O)NCCCCCC(=O)O)cc(OC)c1OC`, the ATP level is inactive: 2.33.
Take `N[C@@H](CCC(=O)N[C@@H](CS)C(=O)NCC(=O)O)C(=O)O`: the ATP level was inactive: -0.329.
Then `CC1=C(C(=O)O)N2C(=O)[C@@H](NC(=O)[C@H](N)C3=CCC=CC3)[C@H]2SC1`, with inactive: -11.1; and `CCC1(c2ccccc2)NC(=O)N(C)C1=O` (centres undefined), with inactive: 2.46; and `COc1cc2c3cc1Oc1cc(ccc1O)C[C@@H]1c4c(cc(OC)c(O)c4Oc4ccc(cc4)C[C@@H]3N(C)CC2)CC[N+]1(C)C`, with inactive: -11.1.
Regarding `Cc1ncc(CO)c(CO)c1O`, the ATP level was inactive: 1.88.
As for `C#C[C@]1(OC(C)=O)CC[C@H]2[C@@H]3CCC4=CC(=NO)CC[C@@H]4[C@H]3CC[C@@]21CC` (mixture of isomers), the ATP level is inactive: 0.325.
As for `O=C1c2ccccc2C(=O)C1c1ccc(Cl)cc1`, the figure is active: 3.86; as for `CC(=O)O[C@]1(C(C)=O)CC[C@H]2[C@@H]3C=C(Cl)C4=CC(=O)[C@@H]5C[C@@H]5[C@]4(C)[C@H]3CC[C@@]21C`, inactive: -8.62; as for `Clc1ccc(CO/N=C(\Cn2ccnc2)c2ccc(Cl)cc2Cl)c(Cl)c1`, inactive: -4.9.
In the case of `N[C@@H]1CONC1=O`, the ATP level was inactive: -0.851.
Regarding `CCCCCCCCCCCCCCCC(=O)OC[C@@H](NC(=O)C(Cl)Cl)[C@H](O)c1ccc([N+](=O)[O-])cc1`, the ATP level was inactive: -4.56.
As for `COc1cc2nc(N(C)CCCNC(=O)C3CCCO3)nc(N)c2cc1OC` (centres undefined), the ATP level was inactive: -1.47.
Take `Clc1ccc(Cn2c(CN3CCCC3)nc3ccccc32)cc1`: the ATP level was inactive: -2.98.
Consider `O=C(O)/C=C/c1ccc(O)c(O)c1`, for which the ATP level was inactive: 1.71.
Turning to `N[C@@H](Cc1cc(I)c(Oc2cc(I)c(O)c(I)c2)c(I)c1)C(=O)O`, the ATP level is inactive: 0.627.
`Cc1cc(=O)oc2cc(O)c(O)cc12`: the ATP level is inactive: 1.79.
As for `COc1cc(O)c(C(C)=O)c(O)c1`, the ATP level is inactive: 0.744.
In the case of `N=C(N)NC(=O)Cc1c(Cl)cccc1Cl`, the ATP level was inactive: 1.46.
As to `COc1cc(O)c(C(=O)c2ccccc2)cc1S(=O)(=O)O`, the ATP level is inactive: 0.849.
For `COc1cc(OC)c2c(=O)c(O)c(-c3ccc(OC)c(OC)c3)oc2c1`, the ATP level is inactive: 0.0536.
With `O=C(O)CCCCCCCCCCCC[C@@H]1C=CCC1`, the ATP level was inactive: 0.761.
As for `CNCc1ccccc1`, the figure is inactive: -1.39; as for `CN1C(=O)CC(c2ccccc2)C1=O` (centres undefined), inactive: 1.46.
Then `CC(O)C(=O)O.N` (centres undefined), with active: 3.92; and `C=C(C)CCCC(C)CCOC(C)=O` (centres undefined), with inactive: -1.4; and `CN(C)CCN(Cc1ccccc1)c1ccccn1`, with inactive: -1.11.
As for `CC(=O)O[C@@]12CO[C@@H]1C[C@H](O)[C@@]1(C)C(=O)[C@H](O)C3=C(C)[C@@H](OC(=O)[C@H](O)[C@@H](NC(=O)OC(C)(C)C)c4ccccc4)C[C@@](O)([C@@H](OC(=O)c4ccccc4)[C@H]21)C3(C)C`, the ATP level is inactive: 0.0317.
As for `Nc1ncnc2c1ncn2[C@@H]1O[C@H](CO)[C@@H](O)[C@H]1O`, the ATP level is inactive: 0.886.
As for `Clc1ccc(CSC(Cn2ccnc2)c2ccc(Cl)cc2Cl)cc1` (centres undefined), the ATP level is inactive: 1.18.
For `C[n+]1cc2c3c(ccc2c2ccc4cc5c(cc4c21)OCO5)OCO3`, the ATP level was inactive: -14.7.
Take `COc1ccc2c(c1)OCC(Cc1ccc(O)c(OC)c1)C2=O` (centres undefined): the ATP level was inactive: -4.44.
On to `C[C@]12CC[C@@H]3c4ccc(O)cc4CC[C@H]3[C@@H]1CC[C@@H]2O`, for which the ATP level is inactive: -0.518.
`CCCN(CCC)S(=O)(=O)c1ccc(C(=O)O)cc1`: the ATP level is inactive: 1.93.
Take `CCN(CC)C(=O)c1cccc(C)c1`: the ATP level is active: 5.31.
For `CCN(CC)C(=O)c1cccnc1`, the ATP level is inactive: 2.82.
Turning to `COc1ccc2[nH]c([S+]([O-])Cc3ncc(C)c(OC)c3C)nc2n1` (centres undefined), the ATP level was inactive: -3.55.
Turning to `CN(C)CCOC(c1ccccc1)c1ccccc1`, the ATP level is inactive: -4.91.
With `C=CCCCCCCCCCCCc1ccco1`, the ATP level is inactive: -0.501.
Take `CC(=O)[C@H]1CC[C@H]2[C@@H]3CCC4=CC(=O)CC[C@]4(C)[C@H]3CC[C@]12C`: the ATP level was inactive: -4.16.
As to `CC(=O)O[C@H]1C[C@@H](OC(C)=O)C(C)(C)[C@@H]2C[C@@H](OC(C)=O)[C@]3(C)[C@H](CC[C@@]4(C)[C@H](c5ccoc5)OC(=O)[C@H]5O[C@@]534)[C@@]12C`, the ATP level is inactive: 1.47.
Consider `CN(C)CC/C=C1/c2ccccc2Sc2ccc(Cl)cc21`, for which the ATP level was inactive: -6.49.
With `CC1(C)C(=O)C=C[C@]2(C)[C@H]3CC[C@@]4(C)[C@H](c5ccoc5)OC(=O)[C@H]5O[C@]54[C@]3(C)C(=O)C[C@@H]12`, the ATP level is inactive: 0.0261.
As for `CNCCCC1c2ccccc2C=Cc2ccccc21`, the figure is inactive: -7.59; as for `CCOC(=O)C1=C[C@@H](OC(CC)CC)[C@H](NC(C)=O)[C@@H](N)C1`, inactive: -0.802 and inactive: -0.0931; as for `C[C@]12CCC(=O)C=C1CC[C@@H]1[C@@H]2[C@@H](O)C[C@@]2(C)[C@H]1CC[C@]2(O)C(=O)CO`, inactive: -1.22.
On to `Oc1ncnc2[nH]ncc12`, for which the ATP level is inactive: 1.15.
As for `c1ccc2c(Cc3c[nH]c4ccccc34)c[nH]c2c1`, the figure is inactive: -3.58; as for `CO/N=C(\C(=O)N[C@@H]1C(=O)N2C(C(=O)OCOC(=O)C(C)(C)C)=C(/C=C\c3scnc3C)CS[C@H]12)c1csc(N)n1`, active: 3.77; as for `CN(N=O)C(=O)N[C@H]1C(O)O[C@H](CO)[C@@H](O)[C@@H]1O` (mixture of isomers), inactive: -0.279.
As for `CCCc1cc(=O)[nH]c(=S)[nH]1`, the figure is inactive: 0.182; as for `COc1ccc2oc(-c3ccccc3OC)cc(=O)c2c1`, inactive: 0.326.
Then `CN1CCc2c(c3ccccc3n2Cc2ccccc2)C1`, with inactive: -6.12; and `Fc1ccc(C(c2ccc(F)cc2)N2CCN(C/C=C/c3ccccc3)CC2)cc1`, with inactive: 0.822.
With `Cc1ccc(Nc2c(F)cccc2Cl)c(CC(=O)O)c1`, the ATP level was inactive: 2.33.
Regarding `CC(=O)Nc1cc2ccccc2oc1=O`, the ATP level was inactive: -0.557.
On to `COc1ccc(/C=C/C(=O)O)cc1OC`, for which the ATP level was inactive: -2.53.
Regarding `CCCCC(=O)O[C@H]1CC[C@H]2[C@@H]3CCc4cc(O)ccc4[C@H]3CC[C@]12C`, the ATP level was inactive: 0.0832.
Take `N=C(N)c1ccc(OCCCCCOc2ccc(C(=N)N)cc2)cc1`: the ATP level is inactive: -8.8.
On to `O=C(OC[C@H]1O[C@@H](OC(=O)c2cc(O)c(O)c(OC(=O)c3cc(O)c(O)c(O)c3)c2)[C@H](OC(=O)c2cc(O)c(O)c(OC(=O)c3cc(O)c(O)c(O)c3)c2)[C@@H](OC(=O)c2cc(O)c(O)c(OC(=O)c3cc(O)c(O)c(O)c3)c2)[C@@H]1OC(=O)c1cc(O)c(O)c(OC(=O)c2cc(O)c(O)c(O)c2)c1)c1cc(O)c(O)c(OC(=O)c2cc(O)c(O)c(O)c2)c1`, for which the ATP level was active: 4.23.
As for `Cc1cc(O)c(C)c(O)c1C(=O)O`, the figure is inactive: 0.947.
With `OCCOCCN1CCN(C2=Nc3ccccc3Sc3ccccc32)CC1`, the ATP level was inactive: -0.329.
Consider `COc1cccc2c1C(=O)c1c(O)c3c(c(O)c1C2=O)C[C@@](O)(C(=O)CO)C[C@@H]3O[C@H]1C[C@H](N)[C@H](O)[C@H](C)O1`, for which the ATP level was active: 4.43.
As for `NC(=O)SC[C@H](N)C(=O)O`, the ATP level is inactive: 0.525.
On to `COc1cc(-c2coc3cc(OCc4ccccc4)c(OC)c(O)c3c2=O)cc(OCc2ccccc2)c1OC`, for which the ATP level is inactive: -6.14.
For `Cc1cccc(C(=O)O)c1O`, the ATP level was inactive: 0.622.
As for `Cc1ccc2c(Br)cc(Br)c(OC(=O)c3ccccc3)c2n1`, the ATP level is inactive: 2.51.
As for `CN[C@@H]1[C@H](O[C@H]2[C@H](O[C@H]3[C@H](O)[C@@H](O)[C@H](N=C(N)N)[C@@H](O)[C@@H]3N=C(N)N)O[C@@H](C)[C@]2(O)C=O)O[C@@H](CO)[C@H](O)[C@H]1O`, the figure is inactive: 0.553; as for `COC(=O)Nc1nc2cc(C(=O)c3ccccc3)ccc2[nH]1`, inactive: -5.75; as for `CC1(C)S[C@@H]2[C@H](NC(=O)[C@H](NC(=O)N3CCNC3=O)c3ccccc3)C(=O)N2[C@H]1C(=O)O`, inactive: -28.2.
On to `COc1c(-c2coc3cc4c(cc3c2=O)CC(OC(C)=O)C(C)(C)O4)ccc2c1C=CC(C)(C)O2` (centres undefined), for which the ATP level is inactive: -3.48.
For the compound `CC(C)c1ccc2oc3nc(N)c(C(=O)O)cc3c(=O)c2c1`, the ATP level is inactive: 2.72.
For `CCCCCCCCCc1ccc(OCCOCCOCCOCCOCCOCCOCCOCCOCCO)cc1`, the ATP level is active: 4.83.
With `NC(=O)c1cc[n+](CC2=C(C(=O)O)N3C(=O)[C@@H](NC(=O)[C@@H](c4ccccc4)S(=O)(=O)[O-])[C@H]3SC2)cc1`, the ATP level is inactive: -0.177.
On to `CCCCCCc1ccc(O)cc1O.Nc1c2ccccc2nc2ccccc12`, for which the ATP level is active: 10.8.
